Measured values: patent US5021413A (priority 1988, dated 1991)

System: p-phenylquinone-induced writhing in mice
Assay: animal or person
Format: in vivo, mouse (male ddY mice)
Settings: Mus musculus, sc, read-out: Analgesic effect, phenylquinone-induced writhing, ED50

Q: `CN1CC[C@]23c4c5ccc(O)c4O[C@H]2[C@@H](O)C=C[C@H]3[C@H]1C5.Cl` [Morphine HCl, reference compound] was tested. Which ED50 did it give?
A: Its ED50 is 0.48 mg/kg.
